Laboratory results as given in patent US20140045807A2, “THE USE OF 3-METHOXY-PREGNENOLONE FOR THE PREPARATION OF A DRUG FOR TREATING A TRAUMATIC BRAIN INJURY” (priority 2004, published 2014).
At least one compound was matched to its structure with a doubt left.

Test system: PC12 cells
Assay: Neuritic growth / sprouting in PC12 cells with NGF
Format: cell-based, rat
Parameters: key to the marks not given beside the values
Conditions: steroid 30 μM, NGF 10 ng/ml, 3 days; relative to PREG

CC(=O)[C@H]1CC[C@H]2[C@@H]3CC=C4C[C@@H](O)CC[C@]4(C)[C@H]3CC[C@]12C [PREG, Pregnenolone]
Neuritic sprouting: ++
